# Values from PubChem BioAssay AID1259424 (University of Nebraska Medical Center, 2018).
# Assay: 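Find knockdowns that reproduce the expression shifts seen after KSR1 loss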 (primary screen)
# Cells: human HCT116 colon cancer cells
# Reagents: siRNA pool against human genes, 50 nM
# Measured: 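Log2 levels of six mRNAs (branched-DNA multiplex), adjusted by two reference genes and the non-targeting median, then scored against the average KSR1 knockdown pattern as Pearson r and euclidean distance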
# Reading the numbers: mean correlation with KSR1 profile and KSR1 correlation: higher = expression change more like KSR1 knockdown; mean distance from KSR1 profile: higher = expression change less like KSR1 knockdown
# This is an unselected part of about 14,000 reagents. 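Higher correlation or smaller distance means closer resemblance to KSR1 loss; control wells, including KSR1 knockdowns, recur on many plates.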 Not given: the time to read-out.
gene,mean correlation with KSR1 profile,mean distance from KSR1 profile,"KSR1 correlation, replicate 1","KSR1 correlation, replicate 2","KSR1 correlation, replicate 3"
ARHGAP1,-0.688,4.36,-0.631,-0.653,-0.79
TREX1,0.316,2.2,0.251,0.366,0.337
TINF2,-0.439,4.39,-0.45,-0.407,-0.557
SNX8,0.472,2.21,0.327,0.294,0.128
MALT1,-0.13,3.5,-0.0376,0.157,-0.196
UBE4B,0.196,1.43,-0.0132,0.2,0.188
KPNA1,-0.295,2.35,-0.312,-0.565,-0.168
RAB3B,-0.462,1.56,-0.482,-0.447,-0.0304
UHRF1,0.378,1.64,0.275,0.363,0.123
RABGEF1,0.7,0.936,0.66,0.565,0.649
ARG2,-0.804,4.72,-0.842,-0.784,-0.816
CRTAC1,-0.536,3.14,-0.496,-0.575,-0.423
TIGD6,-0.241,2.8,-0.31,-0.372,-0.336
MBTD1,-0.206,2.32,-0.263,-0.371,-0.354
KRTAP1-5,0.66,2.64,0.555,0.657,0.684
ARID5B,0.439,1.89,0.493,0.294,0.327
FGD6,0.271,1.41,0.434,-0.171,0.159
SH3PXD2B,0.0426,1.79,-0.349,0.263,0.164
IRS2,0.0423,1.13,0.15,-0.183,0.0968
LY6G6E,-0.427,2.44,-0.438,-0.359,-0.543
ST7,0.312,2.47,0.208,0.395,0.342
HK3,0.681,0.975,0.854,0.657,0.133
CALM2,0.542,3.02,0.745,0.352,0.511
TIE1,0.298,2.11,0.393,0.123,0.244
PCMT1,0.283,1.55,0.298,0.474,0.0579
FOXF2,0.0306,2.4,0.262,0.195,0.0654
SPATA22,-0.121,2.03,-0.325,0.482,-0.459
ZYX,-0.133,2.87,0.165,-0.0502,-0.222
GHSR,0.394,2.95,0.304,0.417,0.582
KISS1R,0.797,0.979,0.75,0.938,0.536
PGAM1,-0.425,1.54,-0.238,-0.48,-0.36
SYNGR3,-0.182,2.29,-0.0861,-0.0512,-0.132
AFG3L1P,0.156,2.01,0.128,-0.124,0.233
BANP,0.263,1.89,0.187,0.222,0.246

3 successive entries already listed, quoted:
gene,mean correlation with KSR1 profile,mean distance from KSR1 profile,"KSR1 correlation, replicate 1","KSR1 correlation, replicate 2","KSR1 correlation, replicate 3"
ARHGAP1,-0.688,4.36,-0.631,-0.653,-0.79
TREX1,0.316,2.2,0.251,0.366,0.337
TINF2,-0.439,4.39,-0.45,-0.407,-0.557
